Results taken from US20210052621A1, “METHODS FOR TREATING FLAVIVIRUSES AND ZIKA INFECTIONS” (THE REGENTS OF THE UNIVERSITY OF CALIFORNIA, priority 2017, published 2021).
At least one compound was matched to its structure with a doubt left.

Test system: Zika virus in 293 T cells
Test: Dose dependent inhibition of Zika virus in 293 T cells, IC50 calculated
Assay type: cell-based
Conditions: MOI of 5, different concentration of drugs
Description: FIGS. 2A-2D. […] FIG. 2A—Lopinavir. FIG. 2B—Daclatasvir. FIG. 2C—Oxyclozanide. FIG. 2D—Rafoxanide.
Conditions: Zika virus in 293 T cells at the MOI of 5 using different concentration of drugs. IC50 was calculated.

COC(=O)N[C@H](C(=O)N1CCC[C@H]1c1nc(-c2ccc(-c3ccc(-c4c[nH]c([C@@H]5CCCN5C(=O)[C@@H](NC(=O)OC)C(C)C)n4)cc3)cc2)c[nH]1)C(C)C [Daclatasvir]
Dose dependent inhibition of Zika virus: Dose dependent inhibition
